Measurements taken from PubChem BioAssay AID493014 (National Center for Advancing Translational Sciences (NCATS), 2011).
The whole screen tested about 340,000 compounds, of which about 170 (0.05%) were called active. The shares of active, inactive and inconclusive entries below differ from those in the screen. The call rests on the fitted dose curve; in most records, active means well fitted inhibition curve with a large enough effect in the signal ratio, with a control signal flat (not every such curve was filed as active); inconclusive means small, poorly fitted or top-dose-only effect, or effect the other way, or a change in a side signal; inactive means flat fitted curve, though single readings scatter; the % refers to the signal ratio. A potency beside an inconclusive call is a rough fit, not a confirmed value.

Assay: qHTS Assay to Find Inhibitors of Chronic Active B-Cell Receptor Signaling;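 on activity change, negative = inhibition: plate controls were basal doxycycline-induced cells for no effect and cells given 10 µM MG132 for full effect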
Conditions: ABC-DLBCL IkBa-CBG/CBR reporter, luminescence ratio (green luciferase fused to IkBa over red control in TMD8 lymphoma cells), 4 h; activity change, negative = inhibition: at 46.1 µM (top of the series) unless noted
Method in brief: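 TMD8 ABC-DLBCL cells carrying doxycycline-inducible green luciferase fused to IkappaBalpha plus unfused red luciferase were exposed to compounds (up to 46 uM) for 4 hrs at 37C. Activity came from the overlap-corrected green/red luminescence ratio.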
Potency means the concentration at half of the fitted maximal effect.

Structure (SMILES)	activity change, negative = inhibition	Potency
CCN1CCN(C(=S)c2ccc(Cl)cc2)CC1	inactive: 20.3%	
COC(=O)Cc1ccc(NC(=S)NCc2ccccc2Cl)cc1	inconclusive: 9.81%	
CCC(=O)c1ccc(N2CCCCCC2)c(F)c1	inconclusive: 21.8%	
CCc1nnc(NC(=O)C2CCCN2C(=O)Nc2ccccc2OC)s1 (stereo not drawn)	inconclusive: 4.41%	
Cc1ccc(C2C=NN(c3ccccc3)C2=O)cc1 (stereo not drawn)		inconclusive: 5.62 µM [falling, single point]
Cc1cccc(OCCn2c(=O)sc3ccccc32)c1	inconclusive: 4.25%	
O=C(Cc1n[nH]c(=O)c2ccccc12)OCC(=O)c1ccc2c(c1)OCCO2		inconclusive: 5.62 µM [falling, full curve]
CC1CCCCN1C(=O)COC(=O)c1ccc(=O)n(Cc2ccccc2)n1 (stereo not drawn)	inactive: 6.99%	
Cc1cccc(NC(=O)COC(=O)c2ccccc2SCC(=O)N2CCCC2)c1	inconclusive: -0.0017%	
Cc1nnsc1C(=O)NC1CCCc2c1cnn2-c1ccc(F)cc1F (stereo not drawn)	inactive: -0.844%	
COc1ccc(OC)c(S(=O)(=O)Nc2cc3c4c(c2)CC(=O)N4CCC3)c1		inconclusive: 0.651 µM [falling, full curve, poor fit]
COc1ccc(S(=O)(=O)N(C)C)cc1NS(=O)(=O)c1ccc(F)c(F)c1F	inactive: 0.908%	
Cc1cc(C)c2cc(CN(CCN(C)C)C(=O)Nc3ccccc3Cl)c(=O)[nH]c2c1		inconclusive: 35.5 µM [falling, single point]
CCCNc1ccc(C(=O)OCC)cc1[N+](=O)[O-]		inconclusive: 35.5 µM [falling, single point]
N#CC1(NC(=O)COC(=O)c2ncc(Cl)c(Cl)c2Cl)CCCCC1	inactive: 4.79%	
CCOC(=O)c1cc2c(nc1N)CCCC2	inconclusive: 25.4%	
C/C(=N\NC(=O)CSc1nc2ccccc2c(=O)n1-c1ccccc1C)c1cccs1	inconclusive: 0.962%	
CCOc1ccc2c(C)cc(=O)oc2c1OCC	inconclusive: -10.4%	
O=c1[nH]c(N/N=C\c2ccc(F)cc2)nc2ccccc12		inconclusive: 22.4 µM [falling, partial curve]
CCOC(=O)c1cc2sccc2n1CC(=O)Nc1ccc(OC)cc1	inconclusive: 7.07%	
Cc1ccc(NC(=O)c2ccc(Cl)nc2)cc1S(=O)(=O)N1CCOCC1	inactive: 3.9%	
O=C(N/N=C/c1sc(N2CCOCC2)nc1-c1ccccc1)c1ccc(O)cc1		inconclusive: 31.6 µM [rising, single point]
O=C(CN1C(=O)c2cccc3cccc1c23)N1CCN(c2ccccc2)CC1	inconclusive: 3.5%	
Cc1cc(N2CCN(C)CC2)nc2ccc(NC(=O)CCC(=O)NCc3ccco3)cc12	inactive: -9.44%	
COc1cccc(NC(C)=[N+](C)CCNS(=O)(=O)c2ccc(Cl)cc2)c1	inconclusive: 3.35%	
Cc1ccc2nc(SCc3nnc(-c4ccccc4[N+](=O)[O-])o3)c(C#N)cc2c1		inconclusive: 10 µM [falling, partial curve]

Fetched by structure from the list above (2):
Structure (SMILES)	activity change, negative = inhibition	Potency
COc1cccc(NC(C)=[N+](C)CCNS(=O)(=O)c2ccc(Cl)cc2)c1	inconclusive: 3.35%	
CCCNc1ccc(C(=O)OCC)cc1[N+](=O)[O-]		inconclusive: 35.5 µM [falling, single point]

(cont.)

Structure (SMILES)	activity change, negative = inhibition	Potency
CCOC(=O)C(C)Oc1cccc2c(=O)n(CC(=O)NCc3ccc(F)cc3)ccc12 (stereo not drawn)		inconclusive: 8.91 µM [falling, partial curve, poor fit]
CCC(C)Sc1nnc(CNC(=O)C23CC4CC(CC(C4)C2)C3)n1C1CCCCC1 (stereo not drawn)	inactive: 17.9%	
O=C(Nc1ccccn1)Nc1ccccc1[N+](=O)[O-]	inactive: -13.6%	
COc1ccc2cc(-c3nc4ccc(C(=O)O)cc4[nH]3)c(=O)oc2c1	inconclusive: 283%	
Cc1cccc(NS(=O)(=O)c2ccc(NC(=O)CN(c3cc([N+](=O)[O-])ccc3C)S(C)(=O)=O)cc2)c1	inconclusive: -11.5%	
Cn1cc(C(=O)c2ccc(Cl)cc2Cl)cc1C(=O)N/N=C(\N)COc1ccc(Cl)cc1Cl	inactive: -7.99%	
CCOC(=O)c1ccc(N2CCN(c3cc(C)ccc3C)CC2)c(NC(=O)Nc2ccccc2)c1	inactive: 0.203%	
O=C(Nc1ccc(Cl)cc1)N1CCCN(Cc2ccc(F)cc2)C1		inconclusive: 4.11 µM [rising, full curve, poor fit]
CCN1C(=O)c2cccc3c(NC(=O)c4ccc(OC)c(OC)c4)ccc1c23	inconclusive: -1.75%	
CCCCOc1ccccc1C(=O)N(Cc1ccc(C)o1)C1CCS(=O)(=O)C1 (stereo not drawn)		inconclusive: 35.5 µM [falling, partial curve, poor fit]
COC(=O)c1ccc(CSc2nnc(Nc3ccc(C)cc3)s2)o1		inconclusive: 20.6 µM [falling, partial curve, poor fit]
Cc1ccc(N2C(=O)CC(n3nc(C)cc3C)C2=O)cc1 (stereo not drawn)	inconclusive: 27.3%	
COC(=O)c1cc(C(=O)Nc2nnc(C3CC3)s2)cc([N+](=O)[O-])c1	inconclusive: 7.54%	
CCn1c(C(=O)N2CCC(C(=O)NCc3cccs3)CC2)cc2sccc21	inconclusive: 23.8%	
COc1ccc(-c2noc(-c3ccc(Cl)cc3)n2)cc1	inconclusive: 9.42%	
CCCN(CC(=O)Nc1ccccc1OC)C(=O)c1ccc(COc2ccccc2)o1	inconclusive: -1.37%	
CC1CCN(c2ccc3c(c2)S(=O)(=O)c2cccc(C(=O)NC4CCCCC4)c2C3=O)CC1		inconclusive: 2.31 µM [falling, partial curve, poor fit]
CC(=O)OCCCN1c2ccccc2Nc2nnc(-c3ccccc3)cc21	inconclusive: 1.51%	
Cn1cnc2cc(NC(=O)c3ccc(Cl)cc3)ccc21		inconclusive: 14.6 µM [falling, partial curve]
CCN1C(=O)[C@H]2[C@@H](c3ccc(-c4ccc(F)cc4)c(OC)c3)N[C@@](C)(C(=O)OC)[C@H]2C1=O	inconclusive: 14%	
O=C(Cc1cccs1)NCc1cccc(CNC(=O)Cc2cccs2)c1	inactive: -0.275%	
O=C(/C=C/c1ccco1)Nc1cccc(-c2nc3ccccc3[nH]2)c1	inconclusive: -0.304%	
O=C(CSc1n[nH]c(=O)[nH]c1=O)Nc1ccc(SC(F)F)cc1	inconclusive: 4.99%	
Cn1cc(Cl)c(C(=O)OCC(=O)Nc2nc(-c3ccc(Br)cc3)cs2)n1	inconclusive: 6.86%	
O=C(Nc1ccc(NC(=O)c2ccco2)c(Cl)c1)c1ccccc1	inconclusive: 14.8%	
O=C(NC1CCN(Cc2ccccc2)CC1)c1cn(-c2ccccc2)nc1-c1cccnc1	inconclusive: 12.1%	

Structure (SMILES)	activity change, negative = inhibition	Potency
O=C(Nn1c(COc2ccccc2)nc2ccccc2c1=O)C(Cl)(Cl)Cl		inconclusive: 35.5 µM [cytotoxic, single point]
CNc1cc(N2CCN(S(=O)(=O)N(C)C)CC2)ccc1[N+](=O)[O-]	inconclusive: 5.92%	
Cc1oc(-c2ccc(Cl)cc2)nc1CN1CCCC(C(=O)N2CCOCC2)C1 (stereo not drawn)	inconclusive: 4.36%	
NS(=O)(=O)c1ccc(N2N=C(c3ccccc3)CC2c2cccc(F)c2)cc1 (stereo not drawn)	inactive: 8.76%	
O=C(CNc1ccccc1)Nc1ccc(F)cc1		inconclusive: 35.5 µM [rising, single point]
CC(C)(C)NC(=O)C(c1ccc(F)cc1)N(CCc1ccccc1)C(=O)c1ccn[nH]1 (stereo not drawn)	inconclusive: 1.29%	
Cc1ccc(-c2c(C(=O)N/N=C/c3c[nH]c4ccccc34)nnn2-c2nonc2N)cc1	inconclusive: 13.6%	
CCOC(=O)C1=C(C)NC(C)=C(C(=O)OCC)C1C(=O)OCC(=O)NCc1ccccc1OC		inconclusive: 16.4 µM [falling, partial curve, poor fit]
Cc1cc(C)cc(OCC(=O)N2CCN(c3ncccn3)CC2)c1	inactive: -0.257%	
Cc1cccc(-c2c3c(=O)n(C)c(=O)n(C)c3cn2-c2ccccc2O)c1		inconclusive: 12.6 µM [falling, partial curve]
CN1CCN(CC(=O)c2cc(C(C)(C)C)c(O)c(C(C)(C)C)c2)CC1		inconclusive: 35.5 µM [falling, single point]
CCCn1c2ccccc2c2nnc(SCC(=O)Nc3ncccn3)nc21	inconclusive: 3.06%	
COc1cccc(NC(=S)/C(=C(\[O-])c2cc(C)n(-c3ccccc3F)c2C)[n+]2ccc(N(C)C)cc2)c1		inconclusive: 5.62 µM [falling, partial curve, poor fit]
CC(=O)OC1[C@H](Oc2c(O)c(C)c3c4c2[C@@H](C)CC[C@@H]4[C@@H](C)C[C@@H]3C=C(C)C)OC[C@@H](O)[C@@H]1O (stereo partly drawn)	inactive: 3.09%	
Cc1ccc(-c2onc3ccc(C(=O)O)cc23)cc1		inconclusive: 10 µM [falling, partial curve]
CCn1c(CN2c3ccccc3Sc3ccccc32)n[nH]c1=S	inconclusive: -19.5%	
CN(CC(=O)Nc1ccccc1Cl)C(=O)CSc1nncn1C	inconclusive: 19.3%	
CCN(CC)C(=S)Sc1c(-c2ccccc2)c2cc(Cl)ccc2[nH]c1=O	inactive: -15.6%	
CN1CCc2nc(SCCOc3ccccc3)c(C#N)cc2C1		inconclusive: 7.31 µM [activator, full curve, poor fit]
COc1ccc2cc(C(=O)C3CCCN(Cc4ccccn4)C3)ccc2c1 (stereo not drawn)	inactive: -15.9%	
O=C(O)Cc1csc(NC(=O)c2ccco2)n1	inconclusive: 2.13%	
CCCCOc1ccccc1N1CCN(CCCN2C(=O)C3CCCN3C2=O)CC1 (stereo not drawn)	inactive: -7.49%	
CCN(c1ccc(NS(=O)(=O)c2cc(Cl)ccc2Cl)cc1)C(C)C	inconclusive: -1.17%	
COc1ccc(N=CC2=C(O)c3ccccc3C2=O)cc1	inconclusive: -19.8%	
CCCCC(Sc1nc2cc3c(cc2c(=O)n1CCCC(=O)NCc1ccc(OC)cc1)OCO3)C(=O)OCC (stereo not drawn)	inactive: -19.3%	
COc1ccc(C(=O)/C=C/C(=O)N(CC(=O)NC2CCCCC2)Cc2cccs2)c(O)c1	inconclusive: 21.4%	

Reformatted: entries from further up

| Structure (SMILES) | activity change, negative = inhibition | Potency |
| --- | --- | --- |
| Cc1ccc(-c2onc3ccc(C(=O)O)cc23)cc1 |  | inconclusive: 10 µM [falling, partial curve] |
| CCn1c(CN2c3ccccc3Sc3ccccc32)n[nH]c1=S | inconclusive: -19.5% |  |
| CN(CC(=O)Nc1ccccc1Cl)C(=O)CSc1nncn1C | inconclusive: 19.3% |  |
| CCN(CC)C(=S)Sc1c(-c2ccccc2)c2cc(Cl)ccc2[nH]c1=O | inactive: -15.6% |  |
